{"source": "the supplement of paper PMC3334620", "note": "Over roughly 33,000 sequences, “E-score (-0.5 to 0.5)” has its median near -0.016; the highest 2% begin near 0.3. The list shows a part of the results."}
{"target": "T1, Yer184c (UniProt P39961)", "T1 sequence": "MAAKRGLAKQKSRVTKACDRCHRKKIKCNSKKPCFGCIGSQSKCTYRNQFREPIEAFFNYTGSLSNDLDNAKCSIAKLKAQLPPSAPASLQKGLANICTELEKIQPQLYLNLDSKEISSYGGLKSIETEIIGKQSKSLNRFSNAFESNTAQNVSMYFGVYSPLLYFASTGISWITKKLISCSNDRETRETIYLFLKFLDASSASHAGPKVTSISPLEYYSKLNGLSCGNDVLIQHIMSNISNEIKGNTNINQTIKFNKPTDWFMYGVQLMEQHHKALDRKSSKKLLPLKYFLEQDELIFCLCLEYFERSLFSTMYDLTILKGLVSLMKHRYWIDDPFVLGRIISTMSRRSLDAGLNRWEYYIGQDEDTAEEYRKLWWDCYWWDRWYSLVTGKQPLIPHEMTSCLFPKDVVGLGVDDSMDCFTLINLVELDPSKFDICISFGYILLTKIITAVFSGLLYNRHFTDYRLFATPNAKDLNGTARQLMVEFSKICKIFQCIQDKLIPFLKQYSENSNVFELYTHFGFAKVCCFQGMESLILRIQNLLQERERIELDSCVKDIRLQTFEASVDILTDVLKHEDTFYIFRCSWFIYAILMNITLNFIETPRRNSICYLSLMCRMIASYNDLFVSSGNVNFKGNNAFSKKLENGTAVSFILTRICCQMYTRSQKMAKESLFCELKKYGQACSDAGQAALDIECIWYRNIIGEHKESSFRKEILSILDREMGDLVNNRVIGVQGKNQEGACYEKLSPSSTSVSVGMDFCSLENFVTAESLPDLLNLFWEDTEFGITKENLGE", "experiment": "PBM E-score (8-mer binding enrichment) (E-score (-0.5 to 0.5)); higher = stronger / more preferred TF binding", "conditions": "protein concentration: 100 nM; construct: GST-full length", "procedure": "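Universal 'all 10-mer' protein binding microarrays (Agilent AMADID 015681) probed with GST-tagged S. cerevisiae TFs (full-length or DBD) made by in vitro transcription/translation (PURExpress), about 100-200 nM. Bound TF was detected with fluorescent anti-GST. Each ungapped 8-mer (which stands for itself and its reverse complement) is scored by the PBM enrichment score (E-score), a modified Wilcoxon-Mann-Whitney statistic from -0.5 to +0.5, computed with the Universal PBM Analysis Suite. Scale: above 0.35 generally sequence-specific binding.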"}
{"sequence": "CAAGCGCC", "PBM E-score": 0.0709}
{"sequence": "CACAGGAC", "PBM E-score": 0.0145}
{"sequence": "AGGGTTGC", "PBM E-score": -0.141}
{"sequence": "ACTTTAGG", "PBM E-score": -0.118}
{"sequence": "AAATCGAT", "PBM E-score": 0.0714}
{"sequence": "GTCGGGCA", "PBM E-score": -0.191}
{"sequence": "ACCTAGAG", "PBM E-score": -0.224}
{"sequence": "CCTCTCAG", "PBM E-score": -0.379}
{"sequence": "GACTCCGC", "PBM E-score": -0.0754}
{"sequence": "GGCGCTAA", "PBM E-score": -0.0408}
{"sequence": "CTTTGCAA", "PBM E-score": 0.155}
{"sequence": "ACCGGAAC", "PBM E-score": 0.398}
{"sequence": "ACCCGTTG", "PBM E-score": -0.104}
{"sequence": "AGACGTTG", "PBM E-score": 0.0176}
{"sequence": "GAAAAGTC", "PBM E-score": -0.0181}
{"sequence": "AAGAGAGG", "PBM E-score": -0.0707}
{"sequence": "AAATGTTG", "PBM E-score": -0.166}
{"sequence": "TACATGGA", "PBM E-score": -0.237}
{"sequence": "AGAATGCT", "PBM E-score": -0.168}
{"sequence": "CCAGCCAC", "PBM E-score": -0.0947}
{"sequence": "ATTATTGA", "PBM E-score": -0.016}
{"sequence": "CCCCGTAA", "PBM E-score": 0.012}
{"sequence": "GAGCCTAC", "PBM E-score": -0.00729}
{"sequence": "ATGAAACG", "PBM E-score": 0.00966}
{"sequence": "ATGTGGAA", "PBM E-score": -0.0417}
{"sequence": "GGAATAAC", "PBM E-score": 0.255}
{"sequence": "CTGGTTAA", "PBM E-score": 0.191}
{"sequence": "CCTCTTAG", "PBM E-score": 0.149}
{"sequence": "ACTTCAGA", "PBM E-score": -0.00383}
{"sequence": "TAGCGCCA", "PBM E-score": -0.177}
{"sequence": "CAACTGAG", "PBM E-score": 0.0797}
{"sequence": "CGGTCAAC", "PBM E-score": 0.159}
{"sequence": "GACAACCA", "PBM E-score": 0.0168}
{"sequence": "AGACGCCG", "PBM E-score": 0.185}
{"sequence": "GAAGCCGA", "PBM E-score": 0.287}
{"sequence": "TAGGGATA", "PBM E-score": -0.0541}
{"sequence": "CGGCCCAC", "PBM E-score": 0.093}
{"sequence": "GGCATCGA", "PBM E-score": -0.149}
{"sequence": "CCCTCCGC", "PBM E-score": -0.136}
{"sequence": "AATACACA", "PBM E-score": 0.0832}
{"sequence": "ACCTATGG", "PBM E-score": -0.0511}
{"sequence": "CTATCCCA", "PBM E-score": -0.291}
{"sequence": "GAGAAACC", "PBM E-score": 0.0354}
{"sequence": "AGACGAGG", "PBM E-score": -0.283}
{"sequence": "CCTCCTTA", "PBM E-score": -0.179}
{"sequence": "AGTAATTA", "PBM E-score": 0.11}
{"sequence": "ACGTGTGA", "PBM E-score": -0.24}
{"sequence": "ATAACGCC", "PBM E-score": -0.0963}
{"sequence": "ACTGTTCG", "PBM E-score": 0.254}
{"sequence": "AACTCTTC", "PBM E-score": -0.103}
{"sequence": "TAAACGTA", "PBM E-score": -0.074}
{"sequence": "ATCGCGTA", "PBM E-score": -0.172}
{"sequence": "AACCGGTG", "PBM E-score": 0.214}
{"sequence": "TAGTTTGA", "PBM E-score": 0.104}
{"sequence": "CTCGTACA", "PBM E-score": -0.132}
{"sequence": "GCTGGGCC", "PBM E-score": -0.209}
{"sequence": "CGGGAATC", "PBM E-score": 0.125}
{"sequence": "TATTCACA", "PBM E-score": 0.218}
{"sequence": "CACTCGCG", "PBM E-score": 0.059}
{"sequence": "GCTTGACA", "PBM E-score": 0.0231}
{"sequence": "AACTGTGT", "PBM E-score": -0.0437}
{"sequence": "AGCAAGCA", "PBM E-score": -0.222}
{"sequence": "CGAGCAAC", "PBM E-score": 0.0276}
{"sequence": "TCCATGAA", "PBM E-score": 0.228}
{"sequence": "GGTTACCA", "PBM E-score": 0.0241}
{"sequence": "GACGCTGA", "PBM E-score": 0.00183}
{"sequence": "GCCCCCGC", "PBM E-score": -0.233}
{"sequence": "ACGGCCAT", "PBM E-score": -0.251}
{"sequence": "GTCGATTA", "PBM E-score": 0.206}
{"sequence": "TCACGTAA", "PBM E-score": -0.16}
{"sequence": "CGGCCAAA", "PBM E-score": 0.258}
{"sequence": "ATTGTTAA", "PBM E-score": 0.15}
{"sequence": "CACCGCTA", "PBM E-score": -0.0823}
{"sequence": "CTGTTAAG", "PBM E-score": -0.0513}
{"sequence": "ATAGAACA", "PBM E-score": -0.0179}
{"sequence": "CCTGTTAA", "PBM E-score": -0.0274}
{"sequence": "AAAGGTCT", "PBM E-score": -0.0165}
{"sequence": "AGAGTGTA", "PBM E-score": -0.101}
{"sequence": "CGTCACTA", "PBM E-score": 0.0543}
{"sequence": "AGCGGCAG", "PBM E-score": 0.0641}
{"sequence": "CCAATCAG", "PBM E-score": -0.314}
{"sequence": "ACCTTTAG", "PBM E-score": -0.0186}
{"sequence": "CCGTGTTA", "PBM E-score": 0.0681}
{"sequence": "ACTAAGGC", "PBM E-score": -0.0457}
{"sequence": "ATGTACTA", "PBM E-score": 0.0128}
{"sequence": "GTAGCGGA", "PBM E-score": 0.186}
{"sequence": "CGTCGGGA", "PBM E-score": 0.098}
{"sequence": "CTGGTCGC", "PBM E-score": -0.0771}
{"sequence": "ATTGGCAA", "PBM E-score": 0.0823}
{"sequence": "ATTTCCCG", "PBM E-score": 0.328}
{"sequence": "ACGCGGAT", "PBM E-score": 0.163}
{"sequence": "TAGAGGAA", "PBM E-score": 0.0258}
{"sequence": "ATCACGCA", "PBM E-score": 0.0621}
{"sequence": "AAAGCGCT", "PBM E-score": 0.238}
